Laboratory results reported in publication PMC7819943, “Rice protein-binding microarrays: a tool to detect cis-acting elements near promoter regions in rice”.
This is one part of the list.

The chains behind the UniProt entries cited, without tags or fusion partners.
UniProt Q0JBA9, entry or part of it: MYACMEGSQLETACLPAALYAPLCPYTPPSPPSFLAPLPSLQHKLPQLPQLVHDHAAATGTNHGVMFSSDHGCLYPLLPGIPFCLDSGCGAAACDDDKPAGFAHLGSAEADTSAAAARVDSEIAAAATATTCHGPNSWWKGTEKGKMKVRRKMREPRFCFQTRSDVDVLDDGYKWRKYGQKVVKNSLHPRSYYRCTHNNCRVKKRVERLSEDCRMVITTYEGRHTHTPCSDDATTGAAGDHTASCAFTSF

What follows are sequences tested against OsWRKY34 (Oryza sativa, UniProt Q0JBA9 1-250) (assay: protein-binding microarray (RPBM); PBS, 2% BSA, 51.3 ng/ul salmon testes DNA, 50 uM zinc acetate, 200 nM TF, 25 C, 1 h; high values mean tight binding). Details: protein: recombinant; tags: N-terminal polyhistidine and DsRed monomer fusion (pET32a); label: CyDye5-dUTP incorporated in the synthesized complementary strand; 3' TTTTT single-stranded linker to array surface; dsDNA, one strand shown.
Procedure, shortened: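 Binding signal here means per-feature fluorescence intensity in arbitrary units. The values were read on an Axon 4000B scanner after a custom Agilent array, double-stranded by primer extension with Cy5-dUTP, was incubated with 200 nM protein at 25 °C for 1 h in PBS with 2% BSA, salmon testes DNA and 50 µM zinc acetate, then washed. The proteins were transcription factors with an N-terminal polyhistidine tag and DsRed, expressed in E. coli BL21-CodonPlus and purified on Ni–NTA.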

Row | Sequence | binding signal
1 | ATTGATCAGCTGCTCCTCGCGAACTGTCAGCGGCTGGTAACGGAGTCACCTAGTGCAG | 8820 fluorescence intensity (a.u.)
2 | TGTGGCGGGGAGGGAGGGAGGGAGAAGGGGCGGCGTGTTGCGGAGTCACCTAGTGCAG | 16600 fluorescence intensity (a.u.)
3 | ACACTGTTTGACCAGAAAATAGGAGTACTCAGCTTTCTTTCGGAGTCACCTAGTGCAG | 8920 fluorescence intensity (a.u.)
4 | AACTGCTGACTACCTTCTTCACACTTGTTTTTACTCCCAACGGAGTCACCTAGTGCAG | 9940 fluorescence intensity (a.u.)
5 | CATTCTCGCTCCGCCCAGCCACCGCCTCCATCTCGACCTCCGGAGTCACCTAGTGCAG | 9570 fluorescence intensity (a.u.)
6 | ATCCCAGTTTCCGTTCTCTCTTCCTTTTCCGTTTACCACACGGAGTCACCTAGTGCAG | 12000 fluorescence intensity (a.u.)
7 | CATCGCATTATGAAATGTCTCGTTCGATCTATGTTGTTATCGGAGTCACCTAGTGCAG | 9550 fluorescence intensity (a.u.)
8 | ACGTAACCCGCGATCTGACCGGTCTGTGACCGGTCACACACGGAGTCACCTAGTGCAG | 8250 fluorescence intensity (a.u.)
9 | TTAATGCCTCCTCCTTCCATTTCCACCCGCTTCCTCTCCTCGGAGTCACCTAGTGCAG | 8700 fluorescence intensity (a.u.)
10 | ATTATTTCTTGATTTTTTGGTTAAGGTGGTTGTGTCTTATCGGAGTCACCTAGTGCAG | 8160 fluorescence intensity (a.u.)
11 | GGGATTTTTGGTATTTTTCACAAGCAAGTACTTCATCTTTCGGAGTCACCTAGTGCAG | 8160 fluorescence intensity (a.u.)
12 | CGCATCAAACCATATCTGCATCGACGTGCGGCGCACACCGCGGAGTCACCTAGTGCAG | 8810 fluorescence intensity (a.u.)
13 | TTCGACCATGCTGCACATATATGTTCATGAACGAATGCTTCGGAGTCACCTAGTGCAG | 8900 fluorescence intensity (a.u.)
14 | TCCGACGCTTCTCCGCTCCGCTGTCAGTTTGAACTAAAAGCGGAGTCACCTAGTGCAG | 10000 fluorescence intensity (a.u.)
15 | ATTCGATGCGACTCAATGTGTGTGTTTTGTGCGATCTATTCGGAGTCACCTAGTGCAG | 8970 fluorescence intensity (a.u.)
16 | AGAATCGATGTTTGGTTGCTAGTATGGGATTTCTGAATAACGGAGTCACCTAGTGCAG | 8930 fluorescence intensity (a.u.)
17 | AAAGCTACTCCACTCCATACCACTCACCGCCAACCCGTACCGGAGTCACCTAGTGCAG | 9580 fluorescence intensity (a.u.)
18 | TGGGCGGCAGGGGCTATTTCTGCAATTTTTTTGGTCGATACGGAGTCACCTAGTGCAG | 9310 fluorescence intensity (a.u.)
19 | TTTAATGTATGGTGCCGTTGACTTTTTTTATCAATATTTGCGGAGTCACCTAGTGCAG | 41200 fluorescence intensity (a.u.)
20 | TAATTTTTTTTCGTCCACATTTAATGCTCCATGCATATGTCGGAGTCACCTAGTGCAG | 8630 fluorescence intensity (a.u.)
21 | TTCCATGAATATAGAAATTATTGCTGTTTTTTCCCGGTTGCGGAGTCACCTAGTGCAG | 8340 fluorescence intensity (a.u.)
22 | TTTGTCAACTCCATCCTTATTTTTTGTTAGCACATTTTTCCGGAGTCACCTAGTGCAG | 10600 fluorescence intensity (a.u.)
23 | ATTTGTACATATATTTTTTCCCCTTTCTCGTACATATCTCCGGAGTCACCTAGTGCAG | 13400 fluorescence intensity (a.u.)
24 | AACTTTATTTTTGGCAACTTTTTCATATGAGTTTATTTAACGGAGTCACCTAGTGCAG | 11900 fluorescence intensity (a.u.)
25 | CATATGACTCCCTCGATGGTTTTTAGTGTGGTTTTCGCTACGGAGTCACCTAGTGCAG | 10900 fluorescence intensity (a.u.)
26 | GACCTCGCGAACAGCCCACACGTACGTTACTGACGCCATACGGAGTCACCTAGTGCAG | 8770 fluorescence intensity (a.u.)
27 | ATGTATATTGTGCTGCAGTTTCTCCCTTTCATTTTTATGTCGGAGTCACCTAGTGCAG | 9140 fluorescence intensity (a.u.)

3 entries picked at random from the list so far, as already listed:
Row | Sequence | binding signal
5 | CATTCTCGCTCCGCCCAGCCACCGCCTCCATCTCGACCTCCGGAGTCACCTAGTGCAG | 9570 fluorescence intensity (a.u.)
15 | ATTCGATGCGACTCAATGTGTGTGTTTTGTGCGATCTATTCGGAGTCACCTAGTGCAG | 8970 fluorescence intensity (a.u.)
22 | TTTGTCAACTCCATCCTTATTTTTTGTTAGCACATTTTTCCGGAGTCACCTAGTGCAG | 10600 fluorescence intensity (a.u.)

Following part

Row | Sequence | binding signal
28 | TAAATTAAATGTTTGAGTTATATCTTGTTTGTATTTTTAACGGAGTCACCTAGTGCAG | 8410 fluorescence intensity (a.u.)
29 | AGCCAATTAGTTTGCTCTCTAGCTAGCTTATTATTGTTTACGGAGTCACCTAGTGCAG | 8170 fluorescence intensity (a.u.)
30 | GAGAGTATTATAGATATTGGTGTTTGTGTACGGGTGATACCGGAGTCACCTAGTGCAG | 8040 fluorescence intensity (a.u.)
31 | ATATGTGGTTGGTTCCTACCGCTTACTGGTTATGGTTGGTCGGAGTCACCTAGTGCAG | 8380 fluorescence intensity (a.u.)
32 | ACGTGTCGTTGACTTTTTATCACACGTTTAGCCATTCGTCCGGAGTCACCTAGTGCAG | 30200 fluorescence intensity (a.u.)
33 | GTGTGTGGAGGAGTTGAGGAAGAAGAAGGGTTAGGGACACCGGAGTCACCTAGTGCAG | 8940 fluorescence intensity (a.u.)
34 | GCCGCTACATTGCACACATCAACACTAGCTTTGCATCCGTCGGAGTCACCTAGTGCAG | 9030 fluorescence intensity (a.u.)
35 | TTTCTTTCCTTTTCCTTTTTTATTCTCGTCTAGTATTATTCGGAGTCACCTAGTGCAG | 8230 fluorescence intensity (a.u.)
36 | ACCTCATCCTCATTCGTCACCACTAGTCCTCGCTGTTGTTCGGAGTCACCTAGTGCAG | 12000 fluorescence intensity (a.u.)
37 | TGCCAGTTTCTTGTCCAATCGAGGAGCTCTGTACCAATAACGGAGTCACCTAGTGCAG | 8740 fluorescence intensity (a.u.)
38 | CTGAGCCATACACGAGCCACATATCATATCAGCTGGACGACGGAGTCACCTAGTGCAG | 9380 fluorescence intensity (a.u.)
39 | GCATCGGCTTCTCTCCTCCAACTCCGGCGGGTTAGGGTTTCGGAGTCACCTAGTGCAG | 8500 fluorescence intensity (a.u.)
40 | GACACATTACACCACACACGTAGCAAAACACATCGTACGTCGGAGTCACCTAGTGCAG | 8430 fluorescence intensity (a.u.)
41 | CTCGTCTACTCTTGCATACACAACACACAACTACTCCCTACGGAGTCACCTAGTGCAG | 8900 fluorescence intensity (a.u.)
42 | GTTGCAAGTTGCCTCGCCGCACGGGCTCCCGTCACGACTCCGGAGTCACCTAGTGCAG | 9580 fluorescence intensity (a.u.)
43 | ACGTCTTACCCCACACGACCAAATTATGGCCTAATCACACCGGAGTCACCTAGTGCAG | 8100 fluorescence intensity (a.u.)
44 | TCCTCCAAATCCCAACCCACCTCACCGATCCCATCTCAATCGGAGTCACCTAGTGCAG | 8040 fluorescence intensity (a.u.)
45 | TAGGCTGTGTTTAGTTCATCGCAAAGTTTAGATTTTGGTTCGGAGTCACCTAGTGCAG | 11200 fluorescence intensity (a.u.)
46 | AACTCATGCTTTAGTACGTTCTCTGTTCTTTTTTGTTATCCGGAGTCACCTAGTGCAG | 10800 fluorescence intensity (a.u.)
47 | CCCGTCGCCAAGCGCCACCACCACCCCTTCGCGCCGCCGCCGGAGTCACCTAGTGCAG | 8060 fluorescence intensity (a.u.)
48 | CTCCGGCCTTTTAATTGGTGTTCTTGTTGGGCCGAAATGTCGGAGTCACCTAGTGCAG | 11900 fluorescence intensity (a.u.)
49 | TGTGGGTATGGGGATGATTTTGTACCCGTGATAGGTGTGGCGGAGTCACCTAGTGCAG | 13100 fluorescence intensity (a.u.)
50 | GCAATACACCTGATTTGATACTTCTTCCGATATAATACTCCGGAGTCACCTAGTGCAG | 8900 fluorescence intensity (a.u.)
51 | ACAAGCTGAGATGGTTAATTGTTTATGTAGATCATTAGTTCGGAGTCACCTAGTGCAG | 8640 fluorescence intensity (a.u.)
52 | CCCACATACACGTCATGCCAATGCCACTCTCGACGAGAAACGGAGTCACCTAGTGCAG | 8820 fluorescence intensity (a.u.)
53 | CCTGTTTGACCATATCGCTAGCCAACACTTGATATTTTACCGGAGTCACCTAGTGCAG | 9610 fluorescence intensity (a.u.)
54 | TCTGACTATTTCCGATCATTTTCATCACTAATCTCACACACGGAGTCACCTAGTGCAG | 8070 fluorescence intensity (a.u.)
